Measurements reported in PubChem BioAssay AID602196 (INSERM, 2012).
In all, the deposit lists about 23,000 reagents; this is a random part of them. 455 of them (2%) were called active. 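Active includes both protection and sensitisation; some change values fall well beyond the stated -50 to +50 range.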 Entries without a mark were called inactive. The record does not give: the amount of reagent.

Screen: 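Knock-downs that protect lung cancer cells from cisplatin or sensitise them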
Cell system: human A549 lung cancer cells
Reagents: siRNA pair against human genes
Timing: 48 h transfection before cisplatin; time from cisplatin to read-out not stated
Treatment: cisplatin at a dose killing half of control-siRNA cells; exact dose and duration not given
Measurement: 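Shift in cisplatin death relative to control siRNA, from -50 (all cells die) to +50 (no cells die); siRNAs harmful on their own scored 0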
Reading the numbers: two-siRNA summed score (-2 to +2): higher = both siRNAs protect from cisplatin killing; -2 means both sensitise; mean protection from cisplatin (shift in death) and protection from cisplatin (shift in death), siRNA C and protection from cisplatin (shift in death), siRNA D: higher = protection from cisplatin killing
Call rule: 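Each siRNA scores 0 if harmful alone by LDH or WST-1, otherwise +1 if it reduces and -1 if it increases cisplatin killing; a gene is active when both siRNAs agree (sum +2 or -2)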
Calls: active = both siRNAs shift cisplatin killing the same way; inactive = no consistent shift, or siRNA harmful alone

Target gene | PubChem SID | two-siRNA summed score (-2 to +2) | mean protection from cisplatin (shift in death) (%) | protection from cisplatin (shift in death), siRNA C (%) | protection from cisplatin (shift in death), siRNA D (%)
LOC440480 | SID131515701 | 0 | 9.6 | 18.2 | 0.9
ZNF25 | SID131513722 | 0 | 6.9 | 7.8 | 6
ALOX12P2 | SID131501260 | -1 | -11 | 4 | -25.9
LOC399839 | SID131510360 | 0 | 3.2 | 4.1 | 2.2
GIT1 | SID131521899 | 1 | 15.4 | -3.5 | 34.3
GABRA3 | SID131504551 | 0 | -5.1 | 10.8 | -21
LOC401048 | SID131514774 | 0 | 8.2 | 10.5 | 5.9
NR2C2AP | SID131508401 | 0 | 1 | 9.5 | -7.5
LOC442704 | SID131515684 | 0 | 9.5 | 1.4 | 17.7
STARD13 | SID131507004 | 0 | -0.7 | -2.7 | 1.4
PPP1R3A | SID131520819 | 1 | 11.2 | 24.7 | -2.3
NCAN | SID131504308 | 0 | -5.8 | -6.6 | -5
IFT20 | SID131518184 | 0 | 17.1 | 22.6 | 11.6
ATG4D | SID131504059 | 0 | -6.7 | -7.5 | -5.8
ECM1 | SID131521208 | 1 | 12.6 | 8.8 | 16.4
TUBB | SID131504315 | 0 | -5.8 | 16.6 | -28.1
KIAA1442 | SID131516752 | 0 | 11.5 | 19.5 | 3.6
ARHGAP1 | SID131512248 | 0 | 5.3 | 12.6 | -2.1
MAN1B1 | SID131506097 | 0 | -2 | -7.7 | 3.6
PKNOX2 | SID131512342 | 0 | 5.4 | 10.1 | 0.6
PSMC5 | SID131522901 | 1 | 35.1 | 35.9 | 34.2
CTSO | SID131519081 | 1 | 2.1 | -6.9 | 11
RPL36AL | SID131513742 | 0 | 7 | 10.5 | 3.4
RBMS3 | SID131519568 | 1 | 6.3 | 19.9 | -7.2
DDOST | SID131522737 | 1 | 22.6 | 40 | 5.2
DRC1 | SID131504898 | 0 | -4.2 | -0.9 | -7.5
INO80E | SID131509640 | 0 | 2.4 | 10.3 | -5.6
SLC25A35 | SID131519911 | 1 | 8 | 20.2 | -4.3
LOC390146 | SID131512916 | 0 | 6 | 17 | -5
CSAG3 | SID131520817 | 1 | 11.2 | -4.7 | 27.1
DSEL | SID131510109 | 0 | 2.9 | 7.9 | -2.1
APOD | SID131507043 | 0 | -0.6 | -2.7 | 1.5
PYGO1 | SID131500305 | -2 (active) | -29 | -31 | -27
LOC442117 | SID131514054 | 0 | 7.3 | 5.2 | 9.4
IFT172 | SID131509614 | 0 | 2.3 | 8.8 | -4.2
POLD3 | SID131512297 | 0 | 5.3 | 1.3 | 9.3
RNMT | SID131503479 | 0 | -9.7 | -6 | -13.5
LOC340156 | SID131502308 | -1 | -3.6 | 8.4 | -15.5
LOC442286 | SID131520345 | 1 | 9.6 | 5.3 | 13.8
